Test results reported in the supplement of paper PMC10849652.
The list shows a part of the results.

The chains behind the UniProt entries cited, without tags or fusion partners. Where a name states a change or a piece, a line headed by the entry shows the natural chain unless it says otherwise.
UniProt Q8IWZ3: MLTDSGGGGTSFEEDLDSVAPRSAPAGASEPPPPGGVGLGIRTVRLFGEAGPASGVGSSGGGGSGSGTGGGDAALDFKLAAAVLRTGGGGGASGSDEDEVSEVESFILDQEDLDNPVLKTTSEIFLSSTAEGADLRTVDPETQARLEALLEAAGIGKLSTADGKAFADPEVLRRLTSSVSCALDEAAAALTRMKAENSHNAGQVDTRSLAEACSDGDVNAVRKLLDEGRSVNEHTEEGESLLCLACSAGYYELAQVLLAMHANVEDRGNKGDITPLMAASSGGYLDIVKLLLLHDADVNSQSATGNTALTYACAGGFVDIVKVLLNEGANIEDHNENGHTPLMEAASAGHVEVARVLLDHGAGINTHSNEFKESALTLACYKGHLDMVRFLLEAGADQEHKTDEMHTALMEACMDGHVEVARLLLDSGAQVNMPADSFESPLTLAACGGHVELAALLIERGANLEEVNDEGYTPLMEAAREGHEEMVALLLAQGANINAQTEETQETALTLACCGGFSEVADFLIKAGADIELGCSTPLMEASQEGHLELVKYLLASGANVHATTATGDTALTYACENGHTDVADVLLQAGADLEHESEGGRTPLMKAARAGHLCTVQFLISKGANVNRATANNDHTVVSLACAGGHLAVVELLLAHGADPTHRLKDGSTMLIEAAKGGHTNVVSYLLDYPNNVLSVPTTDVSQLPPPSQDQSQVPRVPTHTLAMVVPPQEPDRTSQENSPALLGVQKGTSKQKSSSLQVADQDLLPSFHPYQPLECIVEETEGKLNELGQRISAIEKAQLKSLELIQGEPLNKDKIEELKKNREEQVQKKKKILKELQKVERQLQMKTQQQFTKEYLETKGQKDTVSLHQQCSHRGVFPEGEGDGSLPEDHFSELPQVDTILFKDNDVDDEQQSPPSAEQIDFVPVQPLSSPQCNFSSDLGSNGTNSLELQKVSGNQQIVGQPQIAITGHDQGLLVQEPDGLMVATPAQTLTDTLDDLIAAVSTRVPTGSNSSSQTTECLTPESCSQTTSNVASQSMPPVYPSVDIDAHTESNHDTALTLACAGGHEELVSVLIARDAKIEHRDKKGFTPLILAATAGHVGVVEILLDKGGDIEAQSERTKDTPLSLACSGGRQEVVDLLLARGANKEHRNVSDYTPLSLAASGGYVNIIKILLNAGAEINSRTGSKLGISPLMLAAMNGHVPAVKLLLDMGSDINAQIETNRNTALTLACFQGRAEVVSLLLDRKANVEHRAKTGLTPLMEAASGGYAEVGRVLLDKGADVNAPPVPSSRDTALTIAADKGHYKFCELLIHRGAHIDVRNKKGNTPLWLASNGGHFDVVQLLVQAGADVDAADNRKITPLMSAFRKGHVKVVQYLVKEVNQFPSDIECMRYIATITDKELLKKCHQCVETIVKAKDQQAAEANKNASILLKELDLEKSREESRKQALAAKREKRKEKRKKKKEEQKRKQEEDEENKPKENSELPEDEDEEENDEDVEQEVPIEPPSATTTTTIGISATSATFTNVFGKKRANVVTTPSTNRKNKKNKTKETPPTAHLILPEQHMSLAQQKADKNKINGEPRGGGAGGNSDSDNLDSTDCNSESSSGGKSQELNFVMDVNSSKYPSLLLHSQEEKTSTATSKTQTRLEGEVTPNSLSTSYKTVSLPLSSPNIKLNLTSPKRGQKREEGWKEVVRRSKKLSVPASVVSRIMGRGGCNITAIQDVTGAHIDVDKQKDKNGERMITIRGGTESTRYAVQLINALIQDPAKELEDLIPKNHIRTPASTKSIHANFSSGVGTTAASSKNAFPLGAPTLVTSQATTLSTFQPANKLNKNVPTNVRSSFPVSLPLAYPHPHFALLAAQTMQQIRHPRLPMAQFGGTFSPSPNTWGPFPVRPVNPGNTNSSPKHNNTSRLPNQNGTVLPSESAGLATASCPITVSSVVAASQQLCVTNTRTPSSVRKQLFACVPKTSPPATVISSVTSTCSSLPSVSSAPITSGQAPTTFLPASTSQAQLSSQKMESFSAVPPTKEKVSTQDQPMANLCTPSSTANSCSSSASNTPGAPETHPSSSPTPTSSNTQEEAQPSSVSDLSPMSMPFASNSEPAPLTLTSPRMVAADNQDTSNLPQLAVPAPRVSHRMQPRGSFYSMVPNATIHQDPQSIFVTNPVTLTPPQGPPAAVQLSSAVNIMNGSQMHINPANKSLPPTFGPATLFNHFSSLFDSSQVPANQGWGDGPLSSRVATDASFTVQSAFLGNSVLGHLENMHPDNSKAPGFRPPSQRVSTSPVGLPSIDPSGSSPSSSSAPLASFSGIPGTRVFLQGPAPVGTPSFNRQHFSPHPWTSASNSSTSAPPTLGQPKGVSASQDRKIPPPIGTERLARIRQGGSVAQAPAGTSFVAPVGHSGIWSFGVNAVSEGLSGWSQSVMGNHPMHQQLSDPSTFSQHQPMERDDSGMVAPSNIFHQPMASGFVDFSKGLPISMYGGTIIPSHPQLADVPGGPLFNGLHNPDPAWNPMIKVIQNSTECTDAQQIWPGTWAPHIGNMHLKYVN
UniProt Q5I7T1: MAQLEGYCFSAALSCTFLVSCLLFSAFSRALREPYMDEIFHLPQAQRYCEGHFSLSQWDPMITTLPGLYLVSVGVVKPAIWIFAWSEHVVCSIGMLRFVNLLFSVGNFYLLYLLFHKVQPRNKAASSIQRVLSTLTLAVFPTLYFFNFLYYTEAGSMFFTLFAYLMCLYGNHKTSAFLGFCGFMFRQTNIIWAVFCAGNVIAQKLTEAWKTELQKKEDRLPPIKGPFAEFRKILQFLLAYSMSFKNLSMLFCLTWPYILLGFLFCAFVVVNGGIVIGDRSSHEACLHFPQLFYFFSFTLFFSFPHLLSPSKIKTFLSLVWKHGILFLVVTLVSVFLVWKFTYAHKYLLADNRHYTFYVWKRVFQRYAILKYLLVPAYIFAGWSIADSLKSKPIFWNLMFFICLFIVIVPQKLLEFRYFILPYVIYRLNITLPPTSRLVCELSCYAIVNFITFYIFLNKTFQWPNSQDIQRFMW
UniProt Q8N6D5: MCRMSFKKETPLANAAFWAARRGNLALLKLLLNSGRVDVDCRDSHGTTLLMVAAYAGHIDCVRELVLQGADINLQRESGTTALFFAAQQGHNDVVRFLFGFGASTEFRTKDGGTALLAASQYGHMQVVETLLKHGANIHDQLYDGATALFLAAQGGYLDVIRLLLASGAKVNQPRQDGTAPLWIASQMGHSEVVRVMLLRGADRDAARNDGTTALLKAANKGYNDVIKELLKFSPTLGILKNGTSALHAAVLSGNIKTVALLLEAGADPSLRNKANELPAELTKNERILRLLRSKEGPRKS
UniProt Q2TAA5: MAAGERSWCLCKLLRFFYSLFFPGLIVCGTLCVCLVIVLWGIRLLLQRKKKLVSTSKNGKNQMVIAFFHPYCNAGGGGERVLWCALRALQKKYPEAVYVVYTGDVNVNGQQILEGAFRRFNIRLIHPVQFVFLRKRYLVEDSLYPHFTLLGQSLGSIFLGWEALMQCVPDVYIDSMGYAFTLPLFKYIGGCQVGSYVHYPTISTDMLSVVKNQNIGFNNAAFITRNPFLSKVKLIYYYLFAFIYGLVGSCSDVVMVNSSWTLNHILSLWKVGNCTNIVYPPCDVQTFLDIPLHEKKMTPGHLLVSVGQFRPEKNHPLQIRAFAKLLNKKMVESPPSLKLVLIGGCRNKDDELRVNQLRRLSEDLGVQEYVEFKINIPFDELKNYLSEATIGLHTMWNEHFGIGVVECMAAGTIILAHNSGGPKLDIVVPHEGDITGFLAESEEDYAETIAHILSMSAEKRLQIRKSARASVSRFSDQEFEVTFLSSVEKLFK
UniProt Q96PC3: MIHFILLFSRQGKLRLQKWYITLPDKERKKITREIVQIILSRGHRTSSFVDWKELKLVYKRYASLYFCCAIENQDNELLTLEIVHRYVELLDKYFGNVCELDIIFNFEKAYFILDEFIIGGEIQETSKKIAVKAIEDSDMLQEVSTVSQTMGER
UniProt P61966: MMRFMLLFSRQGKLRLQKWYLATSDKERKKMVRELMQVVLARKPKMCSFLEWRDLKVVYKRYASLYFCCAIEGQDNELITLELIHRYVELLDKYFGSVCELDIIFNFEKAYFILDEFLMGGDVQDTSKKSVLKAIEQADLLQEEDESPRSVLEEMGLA
UniProt Q9UPM8: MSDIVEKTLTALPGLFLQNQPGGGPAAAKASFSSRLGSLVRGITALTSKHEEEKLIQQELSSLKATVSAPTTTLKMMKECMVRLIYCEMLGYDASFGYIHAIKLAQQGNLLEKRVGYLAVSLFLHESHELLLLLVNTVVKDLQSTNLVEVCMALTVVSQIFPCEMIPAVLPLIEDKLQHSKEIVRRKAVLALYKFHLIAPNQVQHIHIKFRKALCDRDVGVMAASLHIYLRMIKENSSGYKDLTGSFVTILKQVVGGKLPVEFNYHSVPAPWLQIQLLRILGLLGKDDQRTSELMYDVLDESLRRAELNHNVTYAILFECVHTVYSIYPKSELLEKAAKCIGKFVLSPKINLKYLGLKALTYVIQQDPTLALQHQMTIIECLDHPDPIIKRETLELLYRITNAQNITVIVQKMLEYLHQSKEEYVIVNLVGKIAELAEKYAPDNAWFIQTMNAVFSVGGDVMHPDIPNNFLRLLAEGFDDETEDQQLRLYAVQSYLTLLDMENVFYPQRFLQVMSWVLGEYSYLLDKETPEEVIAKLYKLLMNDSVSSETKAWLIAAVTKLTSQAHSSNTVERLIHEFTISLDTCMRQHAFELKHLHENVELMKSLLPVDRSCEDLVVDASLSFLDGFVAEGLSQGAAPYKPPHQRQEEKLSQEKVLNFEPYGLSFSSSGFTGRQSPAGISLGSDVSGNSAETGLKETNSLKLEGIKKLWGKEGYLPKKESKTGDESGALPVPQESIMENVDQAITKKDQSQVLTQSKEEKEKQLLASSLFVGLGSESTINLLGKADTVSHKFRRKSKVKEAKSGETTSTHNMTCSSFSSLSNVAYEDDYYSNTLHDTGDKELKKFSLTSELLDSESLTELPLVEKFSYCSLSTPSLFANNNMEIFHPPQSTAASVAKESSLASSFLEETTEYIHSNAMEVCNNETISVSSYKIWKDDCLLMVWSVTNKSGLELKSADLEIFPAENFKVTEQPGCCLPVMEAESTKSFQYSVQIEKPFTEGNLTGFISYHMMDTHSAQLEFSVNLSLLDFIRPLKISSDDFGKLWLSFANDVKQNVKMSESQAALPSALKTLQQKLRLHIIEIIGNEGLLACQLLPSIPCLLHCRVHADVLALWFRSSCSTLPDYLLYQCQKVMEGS
UniProt P27216: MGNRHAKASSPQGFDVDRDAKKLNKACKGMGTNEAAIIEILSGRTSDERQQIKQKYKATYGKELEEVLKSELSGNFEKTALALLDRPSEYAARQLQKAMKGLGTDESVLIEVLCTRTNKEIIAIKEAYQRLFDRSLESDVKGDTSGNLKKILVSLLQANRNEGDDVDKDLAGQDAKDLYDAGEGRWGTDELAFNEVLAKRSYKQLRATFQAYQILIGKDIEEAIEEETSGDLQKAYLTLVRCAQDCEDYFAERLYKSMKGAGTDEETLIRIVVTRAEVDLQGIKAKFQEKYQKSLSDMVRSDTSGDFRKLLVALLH
UniProt Q96CW1: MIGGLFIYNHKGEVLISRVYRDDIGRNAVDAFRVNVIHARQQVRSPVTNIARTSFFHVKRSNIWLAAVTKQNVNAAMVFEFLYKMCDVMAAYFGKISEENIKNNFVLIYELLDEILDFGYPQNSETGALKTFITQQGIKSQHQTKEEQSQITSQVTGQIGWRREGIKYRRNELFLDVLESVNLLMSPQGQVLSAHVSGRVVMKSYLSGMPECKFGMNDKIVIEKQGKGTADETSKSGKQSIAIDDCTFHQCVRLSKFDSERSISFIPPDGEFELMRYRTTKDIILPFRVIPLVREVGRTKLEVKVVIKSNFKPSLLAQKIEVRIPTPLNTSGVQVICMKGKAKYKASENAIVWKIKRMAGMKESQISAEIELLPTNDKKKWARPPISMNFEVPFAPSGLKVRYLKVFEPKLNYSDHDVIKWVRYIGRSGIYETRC
UniProt Q9NXR5: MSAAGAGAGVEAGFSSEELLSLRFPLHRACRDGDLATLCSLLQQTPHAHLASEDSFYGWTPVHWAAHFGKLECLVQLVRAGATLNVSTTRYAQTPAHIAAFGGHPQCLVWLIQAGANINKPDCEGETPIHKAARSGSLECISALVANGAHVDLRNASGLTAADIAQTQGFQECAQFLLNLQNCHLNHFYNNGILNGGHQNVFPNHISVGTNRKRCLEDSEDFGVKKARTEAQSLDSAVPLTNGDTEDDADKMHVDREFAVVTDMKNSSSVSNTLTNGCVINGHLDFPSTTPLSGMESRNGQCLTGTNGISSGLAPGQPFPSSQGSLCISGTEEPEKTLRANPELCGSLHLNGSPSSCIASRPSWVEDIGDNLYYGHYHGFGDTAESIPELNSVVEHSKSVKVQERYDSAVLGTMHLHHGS

compound: C1=CC2=NC=CN=C2C=C1/C=C/3\C(=O)NC(=O)S3; experiment: log2 fold change, soluble protein after heating vs DMSO (PISA); higher = thermal stabilisation; K562 lysate, 10 uM; active = over 0.2 and 3.5 SD of the protein, either way, in both replicates (recomputed)
Method in brief: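 Following dounce homogenisation of K562 pellets in PBS pH 7.4 with 1 mM MgCl2, crude extract at 1 mg/mL protein was incubated for 30 min with 10 μM compound. Aliquots were then heated for 3 min over 48°C-58°C and pooled, NP-40 was added to 0.5% at 4°C, and soluble protein was recovered as the supernatant at 21,000xg for 90 min. Channel-sum-equalised TMTpro 16plex LC-MS/MS quantified this protein. Each value, from duplicates, is a log-two fold change in thermal stability relative to solvent controls.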

log2 fold change, inactive:
ALOX12B (UniProt O75342) 0.007
ANKHD1 isoform 2 (UniProt Q8IWZ3) -0.027
ANKRD52 (UniProt Q8NB46) 0.021
ALG10B (UniProt Q5I7T1) -0.036
ANKRD29 (UniProt Q8N6D5) 0.117
ALG11 (UniProt Q2TAA5) -0.162
AKT1S1 isoform 3 (UniProt Q96B36) -0.012
ALDH18A1 (UniProt P54886) -0.015
ALDOA (UniProt H3BPS8) -0.057
ANGPTL4 (UniProt M0R3A2) 0.207
ANO10 (UniProt Q9NW15) 0.022
AP1S3 isoform 4 (UniProt Q96PC3) 0.085
ANKRD44 isoform 2 (UniProt Q8N8A2) -0.016
ANKRD40 (UniProt Q6AI12) 0.232
AP1S1 (UniProt P61966) -0.029
AP4E1 (UniProt Q9UPM8) 0
ANXA13 isoform 2 (UniProt P27216) -0.083
AP2M1 (UniProt Q96CW1) -0.01
ANKRD10 (UniProt Q9NXR5) 0.055
ANXA2 (UniProt H0YL33) -0.108

A stretch taken from the entries so far, for reference:
log2 fold change, inactive:
ALDH18A1 (UniProt P54886) -0.015
ALDOA (UniProt H3BPS8) -0.057
